PubChem BioAssay AID652243, Drosophila RNAi Screening Center, 2013
Screen: 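Fly genes required for human androgen receptor driven transcription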 (primary screen). System: Drosophila S2R+ cells. Reagent: long dsRNA against Drosophila genes. Time to read-out: 72 h (48 h, then 24 h hormone). Treatment: synthetic androgen R1881 at 10 nM for 24 h. Measured: 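Per-well raw luminescence of the androgen-driven firefly reporter and of the Renilla control, two replicates each, without normalisation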. Reading the numbers: firefly reporter light: higher = more light from androgen-responsive reporter; Renilla control light: higher = more constitutive control signal (cell number, transfection). Hit rule: 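Hit when the log firefly-to-Renilla ratio dropped or increased by a fixed fold versus the mean of GFP or LacZ controls across duplicate plates; lowering cut given as 1.5 and as 3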. Meaning of the calls: active = hit: reporter lowered or raised; inactive = no hit.
In all, the deposit lists about 24,000 reagents; below is a random part of those with a known target gene and a result. Over the whole deposit, 246 (1%) got an active call. 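Plates not normalised; calls are printed but the firefly/Renilla ratio behind them is not deposited; fold cut for lowering reported inconsistently.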 Raw values are not corrected between plates. Reagents against one gene are numbered here. Not stated in the record: the amount of reagent.

{"Gene": "CCT8", "dsRNA no.": 1, "firefly reporter light, replicate 1": 5.95e5, "firefly reporter light, replicate 2": 5.82e5, "Renilla control light, replicate 1": 1.22e6, "Renilla control light, replicate 2": 9.16e5, "Call": "inactive"}
{"Gene": "CCT8", "dsRNA no.": 2, "firefly reporter light, replicate 1": 3.24e5, "firefly reporter light, replicate 2": 3.20e5, "Renilla control light, replicate 1": 8.81e5, "Renilla control light, replicate 2": 7.28e5, "Call": "inactive"}
{"Gene": "CG4049", "dsRNA no.": 1, "firefly reporter light, replicate 1": 2.68e5, "firefly reporter light, replicate 2": 3.40e5, "Renilla control light, replicate 1": 2.29e6, "Renilla control light, replicate 2": 2.01e6, "Call": "inactive"}
{"Gene": "CG4049", "dsRNA no.": 2, "firefly reporter light, replicate 1": 7.79e5, "firefly reporter light, replicate 2": 9.06e5, "Renilla control light, replicate 1": 1.28e6, "Renilla control light, replicate 2": 1.09e6, "Call": "inactive"}
{"Gene": "CG12502", "dsRNA no.": 1, "firefly reporter light, replicate 1": 1.18e6, "firefly reporter light, replicate 2": 1.18e6, "Renilla control light, replicate 1": 1.71e6, "Renilla control light, replicate 2": 1.77e6, "Call": "inactive"}
{"Gene": "CG34195", "dsRNA no.": 1, "firefly reporter light, replicate 1": 70670, "firefly reporter light, replicate 2": 63596, "Renilla control light, replicate 1": 9.68e5, "Renilla control light, replicate 2": 9.68e5, "Call": "inactive"}
{"Gene": "PPYR1", "dsRNA no.": 1, "firefly reporter light, replicate 1": 2.51e5, "firefly reporter light, replicate 2": 2.28e5, "Renilla control light, replicate 1": 1.99e6, "Renilla control light, replicate 2": 2.40e6, "Call": "inactive"}
{"Gene": "PPYR1", "dsRNA no.": 2, "firefly reporter light, replicate 1": 2.15e5, "firefly reporter light, replicate 2": 1.93e5, "Renilla control light, replicate 1": 5.31e5, "Renilla control light, replicate 2": 4.70e5, "Call": "inactive"}
{"Gene": "RfC38", "dsRNA no.": 1, "firefly reporter light, replicate 1": 7.79e5, "firefly reporter light, replicate 2": 5.38e5, "Renilla control light, replicate 1": 1.63e6, "Renilla control light, replicate 2": 1.47e6, "Call": "inactive"}
{"Gene": "Or92a", "dsRNA no.": 1, "firefly reporter light, replicate 1": 2.04e5, "firefly reporter light, replicate 2": 3.13e5, "Renilla control light, replicate 1": 3.14e6, "Renilla control light, replicate 2": 2.77e6, "Call": "inactive"}
{"Gene": "DAT", "dsRNA no.": 1, "firefly reporter light, replicate 1": 1.23e5, "firefly reporter light, replicate 2": 91607, "Renilla control light, replicate 1": 1.67e6, "Renilla control light, replicate 2": 1.67e6, "Call": "inactive"}
{"Gene": "Su(fu)", "dsRNA no.": 1, "firefly reporter light, replicate 1": 44415, "firefly reporter light, replicate 2": 63090, "Renilla control light, replicate 1": 4.69e5, "Renilla control light, replicate 2": 6.70e5, "Call": "inactive"}
{"Gene": "mute", "dsRNA no.": 1, "firefly reporter light, replicate 1": 55765, "firefly reporter light, replicate 2": 82792, "Renilla control light, replicate 1": 1.17e6, "Renilla control light, replicate 2": 1.17e6, "Call": "inactive"}
{"Gene": "mute", "dsRNA no.": 2, "firefly reporter light, replicate 1": 4.18e5, "firefly reporter light, replicate 2": 7.47e5, "Renilla control light, replicate 1": 9.47e5, "Renilla control light, replicate 2": 1.52e6, "Call": "inactive"}
{"Gene": "mute", "dsRNA no.": 3, "firefly reporter light, replicate 1": 4.68e5, "firefly reporter light, replicate 2": 4.01e5, "Renilla control light, replicate 1": 1.26e6, "Renilla control light, replicate 2": 1.26e6, "Call": "inactive"}
{"Gene": "CRIF", "dsRNA no.": 1, "firefly reporter light, replicate 1": 2.73e5, "firefly reporter light, replicate 2": 2.23e5, "Renilla control light, replicate 1": 1.87e6, "Renilla control light, replicate 2": 1.51e6, "Call": "inactive"}
{"Gene": "CRIF", "dsRNA no.": 2, "firefly reporter light, replicate 1": 1.73e5, "firefly reporter light, replicate 2": 2.69e5, "Renilla control light, replicate 1": 5.04e5, "Renilla control light, replicate 2": 6.35e5, "Call": "inactive"}
{"Gene": "CG17687", "dsRNA no.": 1, "firefly reporter light, replicate 1": 1.17e5, "firefly reporter light, replicate 2": 1.07e5, "Renilla control light, replicate 1": 1.62e6, "Renilla control light, replicate 2": 1.32e6, "Call": "inactive"}
{"Gene": "CG17687", "dsRNA no.": 2, "firefly reporter light, replicate 1": 2.76e5, "firefly reporter light, replicate 2": 3.53e5, "Renilla control light, replicate 1": 7.77e5, "Renilla control light, replicate 2": 6.76e5, "Call": "inactive"}
{"Gene": "Ccdc39", "dsRNA no.": 1, "firefly reporter light, replicate 1": 1.08e5, "firefly reporter light, replicate 2": 1.66e5, "Renilla control light, replicate 1": 2.07e6, "Renilla control light, replicate 2": 2.22e6, "Call": "inactive"}
{"Gene": "Cpr49Aa", "dsRNA no.": 1, "firefly reporter light, replicate 1": 5.60e5, "firefly reporter light, replicate 2": 3.68e5, "Renilla control light, replicate 1": 2.07e6, "Renilla control light, replicate 2": 1.87e6, "Call": "inactive"}
{"Gene": "MrgBP", "dsRNA no.": 1, "firefly reporter light, replicate 1": 2.63e5, "firefly reporter light, replicate 2": 1.99e5, "Renilla control light, replicate 1": 2.11e6, "Renilla control light, replicate 2": 1.42e6, "Call": "inactive"}
{"Gene": "MrgBP", "dsRNA no.": 2, "firefly reporter light, replicate 1": 3.64e5, "firefly reporter light, replicate 2": 3.39e5, "Renilla control light, replicate 1": 1.06e6, "Renilla control light, replicate 2": 1.10e6, "Call": "inactive"}
{"Gene": "jigr1", "dsRNA no.": 1, "firefly reporter light, replicate 1": 2.85e5, "firefly reporter light, replicate 2": 2.44e5, "Renilla control light, replicate 1": 3.41e6, "Renilla control light, replicate 2": 2.81e6, "Call": "inactive"}
{"Gene": "jigr1", "dsRNA no.": 2, "firefly reporter light, replicate 1": 5.02e5, "firefly reporter light, replicate 2": 6.71e5, "Renilla control light, replicate 1": 1.80e6, "Renilla control light, replicate 2": 1.44e6, "Call": "inactive"}
{"Gene": "CG7203", "dsRNA no.": 1, "firefly reporter light, replicate 1": 1.60e5, "firefly reporter light, replicate 2": 1.66e5, "Renilla control light, replicate 1": 1.78e6, "Renilla control light, replicate 2": 1.61e6, "Call": "inactive"}
{"Gene": "CG7203", "dsRNA no.": 2, "firefly reporter light, replicate 1": 7.29e5, "firefly reporter light, replicate 2": 6.95e5, "Renilla control light, replicate 1": 6.35e5, "Renilla control light, replicate 2": 1.01e6, "Call": "inactive"}

Records listed so far whose target name begins with P or p (2):
{"Gene": "PPYR1", "dsRNA no.": 1, "firefly reporter light, replicate 1": 2.51e5, "firefly reporter light, replicate 2": 2.28e5, "Renilla control light, replicate 1": 1.99e6, "Renilla control light, replicate 2": 2.40e6, "Call": "inactive"}
{"Gene": "PPYR1", "dsRNA no.": 2, "firefly reporter light, replicate 1": 2.15e5, "firefly reporter light, replicate 2": 1.93e5, "Renilla control light, replicate 1": 5.31e5, "Renilla control light, replicate 2": 4.70e5, "Call": "inactive"}
